No constants are given. Whether binding was seen depends on the method and setting. In cells and extracts the contact can be indirect. These calls come from enrichment with a bait or labelling near it, and not all partners need be listed.

Protein sequences, listed by entry. Tags and fused reporters are not part of them.
UniProt P42224: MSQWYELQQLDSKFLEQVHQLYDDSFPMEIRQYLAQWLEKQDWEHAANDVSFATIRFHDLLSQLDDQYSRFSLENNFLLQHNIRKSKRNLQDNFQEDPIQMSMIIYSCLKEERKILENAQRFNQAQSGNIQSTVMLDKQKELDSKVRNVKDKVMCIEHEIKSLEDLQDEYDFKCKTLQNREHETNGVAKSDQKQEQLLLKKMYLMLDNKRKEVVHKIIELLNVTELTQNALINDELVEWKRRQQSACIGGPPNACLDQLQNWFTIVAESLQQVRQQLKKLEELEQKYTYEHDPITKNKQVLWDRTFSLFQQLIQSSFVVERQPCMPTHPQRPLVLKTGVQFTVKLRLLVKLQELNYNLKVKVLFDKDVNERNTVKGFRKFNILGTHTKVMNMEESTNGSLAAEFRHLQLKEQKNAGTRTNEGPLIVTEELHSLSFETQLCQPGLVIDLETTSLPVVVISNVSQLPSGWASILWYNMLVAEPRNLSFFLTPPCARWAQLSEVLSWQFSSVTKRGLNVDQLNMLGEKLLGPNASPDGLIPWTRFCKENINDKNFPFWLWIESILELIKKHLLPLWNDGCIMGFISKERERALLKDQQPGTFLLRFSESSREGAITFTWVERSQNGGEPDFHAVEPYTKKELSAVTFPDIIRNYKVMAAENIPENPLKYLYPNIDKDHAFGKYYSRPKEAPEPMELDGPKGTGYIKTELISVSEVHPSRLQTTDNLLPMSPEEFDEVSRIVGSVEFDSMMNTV
UniProt Q96EP0: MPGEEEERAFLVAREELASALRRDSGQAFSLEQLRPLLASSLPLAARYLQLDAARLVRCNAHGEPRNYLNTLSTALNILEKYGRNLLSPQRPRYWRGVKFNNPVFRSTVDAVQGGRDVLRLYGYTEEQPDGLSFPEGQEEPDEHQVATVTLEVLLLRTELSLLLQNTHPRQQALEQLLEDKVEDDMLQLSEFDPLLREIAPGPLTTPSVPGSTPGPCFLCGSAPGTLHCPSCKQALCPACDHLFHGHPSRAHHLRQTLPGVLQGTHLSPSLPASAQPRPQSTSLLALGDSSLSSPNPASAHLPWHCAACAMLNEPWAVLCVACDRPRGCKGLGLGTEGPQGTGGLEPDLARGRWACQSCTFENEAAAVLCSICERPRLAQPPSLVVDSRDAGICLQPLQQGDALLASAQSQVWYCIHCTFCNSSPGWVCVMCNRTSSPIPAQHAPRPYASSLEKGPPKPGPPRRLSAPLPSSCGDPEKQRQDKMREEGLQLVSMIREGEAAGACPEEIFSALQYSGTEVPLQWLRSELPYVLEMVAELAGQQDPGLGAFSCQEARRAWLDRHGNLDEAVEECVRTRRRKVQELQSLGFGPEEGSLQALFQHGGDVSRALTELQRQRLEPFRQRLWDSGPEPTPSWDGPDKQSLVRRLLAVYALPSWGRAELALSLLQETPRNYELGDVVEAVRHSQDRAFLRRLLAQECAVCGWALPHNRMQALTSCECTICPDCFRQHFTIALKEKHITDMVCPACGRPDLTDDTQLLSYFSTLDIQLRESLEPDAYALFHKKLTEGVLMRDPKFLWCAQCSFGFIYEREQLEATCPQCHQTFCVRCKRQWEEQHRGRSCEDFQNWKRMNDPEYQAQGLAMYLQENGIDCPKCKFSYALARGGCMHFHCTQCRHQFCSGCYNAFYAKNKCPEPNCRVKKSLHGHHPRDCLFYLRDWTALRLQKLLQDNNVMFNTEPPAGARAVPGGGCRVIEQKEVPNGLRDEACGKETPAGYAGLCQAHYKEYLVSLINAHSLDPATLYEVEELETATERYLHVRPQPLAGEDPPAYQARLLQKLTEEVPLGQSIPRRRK

Binding data for one substance are collected here from publication PMC7052135.

This assay addresses Flag-STAT1 (UniProt P42224). In words: affinity purification with mass spectrometry; Flag-STAT1 as bait against control vectors; gel bands silver stained, digested with trypsin, Orbitrap Elite; cells not given.

Take “endogenous HOIP (from UniProt Q96EP0 1-1072) (enzyme)”: the binding result is recorded as “binds”.
